Measurements reported in US20090258013A1.
These are yes or no findings as the source states them, for the method shown. Some entries that bind do so weakly or less than the wild type.

Assays:
[1] = target: human TIGIT (gD-tagged) on the surface of stable 293-TIGIT cells (human); assay: flow cytometry on 293-TIGIT cells
[2] = target: human TIGIT (gD-tagged) on the surface of stable 293-TIGIT cells (human); assay: flow cytometry, 10A7 on stable 293-TIGIT cells, without PVR-Fc

B1: anti-TIGIT antibody 10A7 (hamster anti-murine TIGIT monoclonal antibody) (antibody, V domains shown)
VH: EVQLVESGGGLTQPGKSLKLSCEASGFTFSSFTMHWVRQSPGKGLEWVAFIRSGSGIVFYADAVRGRFTISRDNAKNLLFLQMNDLKSEDTAMYYCARRPLGHNTFDSWGQGTLVTVSS
VL: DIVMTQSPSSLAVSPGEKVTMTCKSSQSLYYSGVKENLLAWYQQKPGQSPKLLIYYASIRFTGVPDRFTGSGSGTDYTLTITSVQAEDMGQYFCQQGINNPLTFGDGTKLEIKR
[1]
  binding: binds
[2]
  binding: binds
